Reference: article PMC12362813
Results are given in words; binding and its absence hold for the method and conditions named. In cells and extracts the contact can be indirect. Some results given as binding are weak or reduced against the parent protein; the word gives no strength.

Biological target: T1, STUB1 (endogenous) (human (endogenous in HeLa and SiHa)), Q9UNE7
T1 chain: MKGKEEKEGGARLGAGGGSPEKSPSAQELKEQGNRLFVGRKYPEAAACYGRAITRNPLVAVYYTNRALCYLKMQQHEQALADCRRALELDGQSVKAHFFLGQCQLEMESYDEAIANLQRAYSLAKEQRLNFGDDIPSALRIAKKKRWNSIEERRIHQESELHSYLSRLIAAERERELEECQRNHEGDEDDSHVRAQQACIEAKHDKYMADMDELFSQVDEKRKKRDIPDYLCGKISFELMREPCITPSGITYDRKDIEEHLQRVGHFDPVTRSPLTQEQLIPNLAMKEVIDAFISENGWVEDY
Test: co-IP; endogenous proteins in HeLa and SiHa cells; IP with antibodies against STING, BAG2 or STUB1, IgG control; MG132 (10 µM) for 6 h; Western blot; also after siBAG2 knock-down (more STUB1 with STING)
Details: remark: other sources report otherwise

binding: binds
B1: BAG2 (endogenous), O95816 1-211 (protein)
chain: MAQAKINAKANEGRFCRSSSMADRSSRLLESLDQLELRVEALREAATAVEQEKEILLEMIHSIQNSQDMRQISDGEREELNLTANRLMGRTLTVEVSVETIRNPQQQESLKHATRIIDEVVNKFLDDLGNAKSHLMSLYSACSSEVPHGPVDQKFQSIVIGCALEDQKKIKRRLETLLRNIENSDKAIKLLEHSKGAGSKTLQQNAESRFN
